Assay results from patent US20100167357A1 (CELLECTIS, published 2010).
No constants are given. Whether binding was seen depends on the method and setting. Binding seen in cells or lysates may run through a third protein. Here binding means that the protein was enriched with, or labelled near, the bait; the list need not be complete. Tags and fused reporters may be left off the sequences shown.

Amino acid sequences for entries named in this document (tags omitted). A change or cut given only in a name is not applied to a line headed by its entry.
UniProt P05725: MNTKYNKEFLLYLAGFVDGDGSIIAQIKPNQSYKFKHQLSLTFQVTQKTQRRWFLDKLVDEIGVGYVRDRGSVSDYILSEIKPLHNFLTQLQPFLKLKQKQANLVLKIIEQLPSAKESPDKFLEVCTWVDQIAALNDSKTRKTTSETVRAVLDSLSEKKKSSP

Target: T1, QAN-B3 (QAN with K7E, F54G, L58M, K96E), His tag removed, co-expressed from pCDFDuet1 (Chlamydomonas reinhardtii (Chlamydomonas smithii)) (UniProt P05725)
T1 sequence: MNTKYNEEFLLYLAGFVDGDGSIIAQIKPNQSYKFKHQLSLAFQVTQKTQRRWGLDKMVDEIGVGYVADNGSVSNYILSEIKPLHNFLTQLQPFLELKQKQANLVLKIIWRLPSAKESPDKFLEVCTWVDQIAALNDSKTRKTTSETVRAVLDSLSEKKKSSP
Test: co-expression in E. coli, His-tag co-purification (2 bands of about equal amount on SDS-PAGE), mass spectroscopy, analytical ultracentrifugation

binding: binds
B1: KTG-A2 (KTG with K7R, E8R, F54W, E61R, K96R, L97F) (enzyme)
chain: MNTKYNRRFLLYLAGFVDGDGSIIAQIKPNQSYKFKHQLSLAFKVTQKTQRRWWLDKLVDRIGVGYVTDGGSVSNYILSEIKPLHNFLTQLQPFLRFKQKQANLVLKIIWRLPSAKESPDKFLEVCTWVDQIAALNDSKTRKTTSETVRAVLDSLSEKKKSSP
notes: Designed monomer; Expressed with a His tag from pET-series plasmid pCLS1211
